Results are given in words; binding and its absence hold for the method and conditions named. Binding seen in cells or lysates may run through a third protein. Binding calls can cover weak binding; strength is not graded here.

This assay deals with T1, Vascular endothelial (VE)-cadherin (human (endogenous in HBMECs)) (UniProt P33151).
T1 sequence: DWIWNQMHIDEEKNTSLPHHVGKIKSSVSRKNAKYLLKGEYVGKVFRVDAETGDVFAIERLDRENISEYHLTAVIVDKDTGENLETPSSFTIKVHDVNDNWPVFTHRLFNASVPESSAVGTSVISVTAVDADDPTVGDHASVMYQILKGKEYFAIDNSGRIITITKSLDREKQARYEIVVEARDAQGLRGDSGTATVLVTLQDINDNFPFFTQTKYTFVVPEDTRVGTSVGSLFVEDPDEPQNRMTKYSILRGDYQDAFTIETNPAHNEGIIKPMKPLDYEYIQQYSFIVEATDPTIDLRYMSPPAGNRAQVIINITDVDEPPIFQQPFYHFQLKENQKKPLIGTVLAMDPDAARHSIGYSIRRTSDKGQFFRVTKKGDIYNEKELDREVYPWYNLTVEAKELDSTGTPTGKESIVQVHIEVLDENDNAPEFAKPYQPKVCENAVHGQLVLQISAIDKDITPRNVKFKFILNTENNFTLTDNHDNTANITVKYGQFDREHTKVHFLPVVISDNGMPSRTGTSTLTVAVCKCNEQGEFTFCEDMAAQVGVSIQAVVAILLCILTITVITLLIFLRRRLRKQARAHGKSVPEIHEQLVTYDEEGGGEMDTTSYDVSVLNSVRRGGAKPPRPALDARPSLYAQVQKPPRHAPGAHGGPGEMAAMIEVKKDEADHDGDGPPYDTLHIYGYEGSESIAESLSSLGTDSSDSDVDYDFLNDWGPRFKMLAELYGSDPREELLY
The assay is described as follows: co-IP; IP with VE-cadherin antibody from HBMEC lysates, Western blot for α-catenin and β-catenin; cells under hypoxia plus IL-1β for 24 hours with rhTIMP2, rhAlaTIMP2 or PBS; also cells transfected with WT, Y419D or Y419A Src.

“α-catenin (human (endogenous in HBMECs))”: the binding result was “binds”.

Values taken from publication PMC10849766.
